{
  "source": "patent US11531036B2",
  "about": "“Method and apparatus for determining the efficacy of statins for treating inflammatory diseases in individual patients” (Queen Mary University of London, priority 2017, dated 2022)",
  "system": "13-series resolvins (RvT) and eicosanoids",
  "key": {"[1]": {"conditions": "0.2 mg/Kg, plasma 24 h after last dose"}, "[2]": {"conditions": "blood 2 h after last statin dose on day 7"}},
  "data": [
    {"smiles": "CC(C)c1c(C(=O)Nc2ccccc2)c(-c2ccccc2)c(-c2ccc(F)cc2)n1CC[C@@H](O)C[C@@H](O)CC(=O)O", "note": "[atorvastatin]", "values": [
      {"measurement": "plasma LTB4, PGD2, PGE2, PGF2α and TxB2 levels", "setting": "[1]", "result": "decreases"},
      {"measurement": "plasma RvT1 concentration", "setting": "[1]", "result": "increased"},
      {"measurement": "plasma RvT4 concentration", "setting": "[1]", "result": "only increased by atorvastatin"},
      {"measurement": "increase in plasma/peripheral blood RvT compared with vehicle", "setting": "[2]", "result": "> 200", "unit": "%"},
      {"measurement": "individual RvT increased in plasma compared with vehicle", "setting": "[2]", "result": "increases in RvT1, RvT2 and RvT3"}
    ]}
  ]
}
